Assay results reported in PubChem BioAssay AID435003 (Sanford-Burnham Center for Chemical Genomics, 2010).
Only a part is listed here, and it is no random draw. Calls of active or inactive are those of the source. Rule as the data show it: active = inhibition above about 50%; inactive = the rest.

Assay: lowers stimulated NF-kB reporter luminescence – cell-based, uHTS, TCR NF-kB activation inhibitor project, primary screen (AID 435003)
Details: NF-kB luciferase reporter, at 4 µM, stronger effect = higher value

Compound | inhibition
CN[C@H]1C[C@H]2O[C@@](C)([C@H]1OC)n1c3ccccc3c3c4c(c5c6ccccc6n2c5c31)C(=O)NC4 | active: 101%
